Test system: 16S ribosomal RNA fragment
Assay: Relative gas-phase activation energies (EA) for dissociation of ligand-16S complexes, FTICR
Type: binding, bacterial
Details: normalized to the activation energy for loss of ammonia

| Compound | Relative EA | further results |
| --- | --- | --- |
| N=C(N)c1ccc(N)cc1 [ABA, 4-aminobenzamidine] | 4.00 | Relative EA (listed as 4-aminobenzamidine): 4.00 ± 0.28 |
| NC(=O)c1[nH]cnc1N [AICA, 4-aminoimidazole-5-carboxamide] | 2.04 | Relative EA (listed as 4-Aminoimidazolecarboxamide): 2.04 ± 0.16 |
| Nc1ccnc(N)n1 [DAP, 2,4-diaminopyrimidine] | 2.16 | Relative EA (listed as 2,4-Diaminopyrimdine): 2.16 ± 0.11 |
| N[C@H]1C(O)O[C@H](CO)[C@@H](O)[C@@H]1O (stereo partly shown) [GA, glucosamine] | 2.86 | Relative EA (listed as Glucosamine): 2.86 ± 0.21 |
| N=C(N)Nc1nc2ccccc2[nH]1 [GBI, 2-guanidylbenzimidazole] | 2.12 | Relative EA (listed as 2-Guanylbenzimidazole): 2.12 ± 0.09 |

From patent US8188011B1, “Optimization of ligand affinity for RNA targets using mass spectrometry” (Isis Pharmaceuticals, Inc., priority 2000, dated 2012)
